# Primary screen of a compound library

Data taken from ChEMBL document CHEMBL3988442, “University of Dundee, Small-Polar-MMV Screening Library” (2021).

A: 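Growth of Mycobacterium tuberculosis over 3 days (7H9 medium with glucose and tyloxapol); the read-out is not stated. Tested at 500 µM. The record gives no direction; compounds that gave an IC50 in retests scored well above the rest, so higher reads as more growth inhibition. Of about 18,000 compounds tested this way, about 1,400 (7.9%) reached 50% or more in at least one test.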
B: 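Phenotypic screen: M. tuberculosis growth, cholesterol and DPPC medium, 4 days; the read-out is not stated. Concentration: 500 µM. Direction is inferred from retests: higher values go with more growth inhibition. About 18,000 compounds were tested under these conditions; 5% (about 900) showed 50% or more at least once.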

The filed quantity is “Percent Effect” (%). The record does not define 0% and 100%; most values in the screen are far below 50% and negative numbers occur (in some assays of this library far below -100). This is an unselected part of the compounds tested.

Compound	A	B
CS(=O)(=O)N1CCN(C(=O)c2cc(C3CC3)on2)CC1	33.81	19.38
CC[C@@H](CO)NC(=O)NCC(C)c1ccsc1 (some centres unmarked)	74.29	62.32
Cc1csc(S(=O)(=O)NCCCOCC2CCCO2)n1 (centres unmarked)	44.69	38.94
Cc1cccc(NC(=O)CCN)n1	6.672	-0.6936
O=C(NCCNC(=O)c1ccccc1)Nc1nncs1	7.748	8.279
Cc1cc(C(=O)NCC(C)(C)N2CCOCC2)[nH]n1	-7.867	-8.723
CC(C)c1nnc(CNCC2CCN(CCO)CC2)o1	-0.2905	5.399
CSCC(CCO)NC(=O)c1cnn(C)c1C (centres unmarked)	20.34	1.63
NC1CCn2ccnc2C1 (centres unmarked)	2.826	-2.458
CC(N)c1ccc(NC(=O)C2CC2)cc1 (centres unmarked)	5.906	-11.43
NS(=O)(=O)CC1CCN(C(=O)Nc2ccccc2)CC1	16.29	9.716
NCCc1nc(C2CC2)cs1	57.05	71.4
CSCCC1(C)NCCc2[nH]cnc21 (centres unmarked)	14.52	-3.668
CCOC(C)C(=O)NCc1nnc2n1CCCCC2 (centres unmarked)	-6.375	-8.408
Cc1noc(OCC(=O)N(C)C2CC2)n1	0.7503	-4.82
CCn1ncnc1C(C)NC(=O)c1sc(NC)nc1C (centres unmarked)	11.97	13.07
COCCNC(=O)c1cn(CC2CCCNC2)nn1 (centres unmarked)	-6.397	-4.443
CCc1nc2n(n1)CCCC2N (centres unmarked)	-32.38	-33.09
Cc1ccc(C2CCCCN2)o1 (centres unmarked)	16.94	-0.9154
O=C(CC1C=CCC1)NCCNc1ncccn1 (centres unmarked)	25.62	8.071
CCCNC(=O)C1CCN(c2ncccc2C#N)CC1	1.51	1.555
CN1CCC(Sc2nnc(-c3cccs3)o2)C1=O (centres unmarked)	-0.8639	-5.69
CS(=O)(=O)NCc1cn2c(n1)CCCC2	-7.689	-13.03
COC(=O)C1CCN(C(=O)C2CCCC2)CC1	23.21	19.39
CC(O)CS(=O)(=O)N1CCCC1 (centres unmarked)	5.347	9.278
CC(C)(C)OC(=O)N1C[C@@H](N)C[C@H](F)C1	1.075	-1.487
Cc1cnc(C(=O)Nc2nnc3n2CCCC3)cn1	1.532	-12.29
CCNS(=O)(=O)C1CCN(Cc2cc(C#N)cs2)C1 (centres unmarked)	37.04	14.67
NC1CCN(C2CCOCC2)CC1	-9.134	-10.88
CCN(CC)S(=O)(=O)c1csc(C(N)=O)c1	3	-9.036
O=C(NCc1ccccc1F)c1n[nH]c2c1CCCC2	-2.376	-2.906
CC(CN1CCCCCC1)NCCN(C)S(C)(=O)=O (centres unmarked)	1.796	-1.586
O=C(c1n[nH]c(=O)c2ccccc12)N1CCCCC1	7.78	-1.209
COCCN(CCC#N)Cc1nccn1C	3.454	3.681
CCCn1ccnc1CN1CCC(C(=O)NC)C1 (centres unmarked)	12.23	3.048
CCC(CN)CC(F)F (centres unmarked)	2.161	0.512
CCNC(=O)NC(=O)CSc1nnc(C(C)C)n1C	-6.162	16.4
CC(Cc1ccco1)NC(=O)Cn1ccc(=O)[nH]c1=O (centres unmarked)	13.36	9.397
CNc1nc(C(=O)N(C)C(C)c2ccon2)cs1 (centres unmarked)	-5.468	-11.34
NC1CCn2ccnc21 (centres unmarked)	-7.508	-14.95
COC(=O)N1CCN(CC(=O)N(C)CC(F)(F)F)CC1	-0.2929	1.439
NCC1CS(=O)(=O)c2ccccc21 (centres unmarked)	7.581	20.19
O=C(C1CCCC1)N1CCN(C(=O)C2CCCO2)CC1 (centres unmarked)	12.16	2.994
Cc1ccccc1C(C)NC(=O)c1ccc(=O)n(C)n1 (centres unmarked)	21.15	3.473
Cn1nc(C(=O)NCCc2ccccc2Br)ccc1=O	3.288	1.747
Cc1n[nH]c(C)c1NS(=O)(=O)Cc1ccc(F)cc1	8.886	-3.43
COCc1ccc(C(=O)N2CCC[C@@H]2COC)o1	-1.889	-28.53
O=S1(=O)CCC(n2cnc(I)n2)C1 (centres unmarked)	1.101	-8.848
COCCSC(C(N)=O)c1ccccc1 (centres unmarked)	13.73	1.475
NC(=O)C[C@@H](N)c1ccc(F)cc1	2.751	-1.763
CC(C)COc1ccc(NC(=O)Cn2cncn2)cn1	-80.04	-110
Cc1cccc(C(=O)Nc2nnn(C)n2)c1	5.56	-4.601
CNC(=O)C1CCN(Cc2cccc(C)c2)CC1	-9.312	-9.775
CC1CNCCN1c1cccc2cnccc12 (centres unmarked)	44.88	20.01
N#Cc1cnc(SCC(=O)Nc2nccs2)nc1N	23.88	13.05
NC(=O)c1cnn(-c2ccccn2)c1N	14.82	0.03045
CCNC(=O)CCN1CCC(CNc2ccccn2)C1 (centres unmarked)	-12.88	-23.16
O=C(c1ccc(Cl)o1)N1CCN(Cc2ccco2)CC1	89.61	90.44
CS(=O)(=O)CC1(CNc2cccc(C(F)(F)F)n2)CC1	29.93	-9.962
CC1CCCCN1CC(=O)N(C)C (centres unmarked)	-9.21	-5.813
CCN(CC)C(=O)COc1ccc(OC)cc1C(N)=O	-14.85	-8.723
CCC(C(=O)NCCN1CCC(OC)CC1)N(C)C (centres unmarked)	5.5	4.504
CC(=O)N1CCN(C(=O)CCC(C)C)CC1	14.86	13.08
O=C(CSc1cccs1)NCC(=O)N1CCCC1	33.74	21.25
O=C(c1cc(Cl)ccc1F)N1CCNCC1	0.4294	-7.296
COCCN(CCOC)Cc1cn2ccccc2n1	-9.44	-24.47
CNC(=O)NC1CCNCC1	1.343	-1.011
Nc1ccc(N2CCCC2=O)cn1	-13.15	-16.29
COC(CNC(=O)c1ccn(C)c(=O)c1)C(C)(C)C (centres unmarked)	19.07	1.678
Cc1noc(C(C)C)c1C(=O)NCC1CCS(=O)(=O)C1 (centres unmarked)	-3.242	-9.284
CCCS(=O)(=O)N(C)Cc1ccc(OCC)cn1	75.34	69.15
NCC1CCCCN(Cc2ccccc2)C1 (centres unmarked)	3.913	-2.776
Cc1ccccc1C(O)C1CCNCC1 (centres unmarked)	6.024	-13.53
O=C(c1ccco1)N1CCCC1c1ccco1 (centres unmarked)	-4.367	-19.42
Cc1ccc(S(=O)(=O)NCCCN)c2cccnc12	37.75	-2.692
COCCN(CC(=O)N(C)C)c1ccnc(C)n1	-3.718	-6.905
CCN1CCCC1CNC(=O)c1cccc(C)n1 (centres unmarked)	56.08	1.458
CNC(=O)CNC(=O)c1ccccc1O	-9.316	-22.05
COc1cccc(S(=O)(=O)CCN2CCC(O)CC2)c1	64.67	33.11

8 of the entries, repeated:

Nc1ccc(N2CCCC2=O)cn1 read A: -13.15%; B: -16.29%.
CNC(=O)NC1CCNCC1 read A: 1.343%; B: -1.011%.
NC1CCn2ccnc21 (centres unmarked) read A: -7.508%; B: -14.95%.
CSCC(CCO)NC(=O)c1cnn(C)c1C (centres unmarked) read A: 20.34%; B: 1.63%.
O=C(CC1C=CCC1)NCCNc1ncccn1 (centres unmarked) read A: 25.62%; B: 8.071%.
O=C(C1CCCC1)N1CCN(C(=O)C2CCCO2)CC1 (centres unmarked) read A: 12.16%; B: 2.994%.
Cc1cc(C(=O)NCC(C)(C)N2CCOCC2)[nH]n1 read A: -7.867%; B: -8.723%.
Cc1cnc(C(=O)Nc2nnc3n2CCCC3)cn1 read A: 1.532%; B: -12.29%.